Results from PubChem BioAssay AID248 (DTP/NCI, 2004).
The list shows only some results of the screen, not a fair sample: it gathers some chemical classes. Other doses and runs of a compound may be missing. T/C: endpoint of the treated group in % of that of the vehicle group. For survival time, the PubChem record calls one and a half times the control and up active, and a quarter to a half above the control has no call in these data; cut-offs in other NCI protocols can differ. Some T/C values are marked as having no survivor count here; that says nothing about deaths at the dose. Schedule codes are those of the source, taken here to give the interval after Q, in days (D) or hours (H), and the number of doses after X. Some entries were tested several times; the results are listed from low to high. Counts like (3×) count equal records among those shown. Some schedule codes hold Z or #, which are not explained here.

Test system: L1210 leukemia ip in BDF1 mice, survival T/C
Test: NCI In Vivo Anticancer Drug Screen. Data for tumor model L1210 Leukemia (intraperitoneal) in B6D2F1 (BDF1) mice
Conditions: T/C endpoint: mean survival time, higher T/C = longer survival

ClCCN(CCCl)CCc1ccccc1
T/C (dose: 1.8 mg/kg/injection, schedule: Q01DX009 (ip), vehicle: saline): 104 % of control [survivor count not shown] | T/C (dose: 2.6 mg/kg/injection, schedule: Q01DX009 (ip), vehicle: saline): 104 % of control [survivor count not shown] | T/C (dose: 3.6 mg/kg/injection, schedule: Q01DX015 (ip), vehicle: saline): 105 % of control [survivor count not shown] | T/C (dose: 4.0 mg/kg/injection, schedule: Q01DX009 (ip), vehicle: saline): 107 % of control [survivor count not shown] | T/C (dose: 5.5 mg/kg/injection, schedule: Q01DX015 (ip), vehicle: saline): 89 % of control [survivor count not shown] | T/C (dose: 6.0 mg/kg/injection, schedule: Q01DX009 (ip), vehicle: saline): 112 % of control [survivor count not shown] | T/C (dose: 11.0 mg/kg/injection, schedule: Q01DX001 (ip), vehicle: saline): 108 [survivor count not shown], 113 [survivor count not shown], 117 % of control [survivor count not shown] | T/C (dose: 12.5 mg/kg/injection, schedule: Q01DX001 (ip), vehicle: saline): 122 % of control [survivor count not shown] | T/C (dose: 16.6 mg/kg/injection, schedule: Q01DX001 (ip), vehicle: saline): 109 [survivor count not shown] (2×) and 125 % of control [survivor count not shown] | T/C (dose: 25.0 mg/kg/injection, schedule: Q01DX001 (ip), vehicle: saline): 127 [survivor count not shown] and 134 % of control [survivor count not shown] | T/C (dose: 37.5 mg/kg/injection, schedule: Q01DX001 (ip), vehicle: saline): 114 % of control [survivor count not shown]

NCCCOP(=O)(O)N(CCCl)CCCl
T/C (dose: 25.0 mg/kg/injection, schedule: Q01DX009 (ip), vehicle: saline with Tween-80): 95 % of control [survivor count not shown] | T/C (dose: 50.0 mg/kg/injection, schedule: Q01DX009 (ip), vehicle: saline with Tween-80): 106 % of control [survivor count not shown] | T/C (dose: 100.0 mg/kg/injection, schedule: Q01DX009 (ip), vehicle: saline with Tween-80): 110 % of control [survivor count not shown] | T/C (dose: 200.0 mg/kg/injection, schedule: Q01DX009 (ip), vehicle: saline with Tween-80): 104 [survivor count not shown] and 125 % of control [survivor count not shown] | T/C (dose: 300.0 mg/kg/injection, schedule: Q01DX009 (ip), vehicle: saline with Tween-80): 146 % of control [survivor count not shown] | T/C (dose: 400.0 mg/kg/injection, schedule: Q01DX009 (ip), vehicle: saline with Tween-80): 126 [survivor count not shown] and 138 % of control [survivor count not shown] | T/C (dose: 500.0 mg/kg/injection, schedule: Q01DX009 (ip), vehicle: saline with Tween-80): 134 % of control [survivor count not shown]

COc1cc(CN(CCCl)CCCl)cc(OC)c1OC
T/C (dose: 5.0 mg/kg/injection, schedule: Q01DX009 (ip), vehicle: saline): 121 % of control [survivor count not shown] | T/C (dose: 5.0 mg/kg/injection, schedule: Q01DX Z (ip), vehicle: saline): 97 % of control [survivor count not shown] | T/C (dose: 10.0 mg/kg/injection, schedule: Q01DX009 (ip), vehicle: saline): 105 % of control [survivor count not shown]

CCOC(=O)C[N+](C)(CCCl)CCCl
T/C (dose: 0.62 mg/kg/injection, schedule: Q01DX015 (ip), vehicle: saline): 114 % of control [survivor count not shown] | T/C (dose: 0.93 mg/kg/injection, schedule: Q01DX015 (ip), vehicle: saline): 120 % of control [survivor count not shown] | T/C (dose: 1.4 mg/kg/injection, schedule: Q01DX015 (ip), vehicle: saline): 118 [survivor count not shown] and 137 % of control [survivor count not shown] | T/C (dose: 2.1 mg/kg/injection, schedule: Q01DX015 (ip), vehicle: saline): 145 % of control [survivor count not shown] | T/C (dose: 3.1 mg/kg/injection, schedule: Q01DX015 (ip), vehicle: saline): 156 % of control [survivor count not shown] | T/C (dose: 4.7 mg/kg/injection, schedule: Q01DX015 (ip), vehicle: saline): 135 [survivor count not shown] and 161 % of control [survivor count not shown] | T/C (dose: 7.0 mg/kg/injection, schedule: Q01DX015 (ip), vehicle: saline): 144 % of control [survivor count not shown] | T/C (dose: 10.5 mg/kg/injection, schedule: Q01DX015 (ip), vehicle: saline): 132 [survivor count not shown] and 139 % of control [survivor count not shown] | T/C (dose: 18.0 mg/kg/injection, schedule: Q01DX015 (ip), vehicle: saline): 154 % of control [survivor count not shown] | T/C (dose: 30.0 mg/kg/injection, schedule: Q01DX015 (ip), vehicle: saline): 172 [survivor count not shown] and 180 % of control [survivor count not shown] | T/C (dose: 44.4 mg/kg/injection, schedule: Q01DX001 (ip), vehicle: saline): 132 % of control [survivor count not shown] | T/C (dose: 50.0 mg/kg/injection, schedule: Q01DX015 (ip), vehicle: saline): 125 [survivor count not shown] and 172 % of control [survivor count not shown] | T/C (dose: 66.7 mg/kg/injection, schedule: Q01DX001 (ip), vehicle: saline): 136 % of control [survivor count not shown] | T/C (dose: 100.0 mg/kg/injection, schedule: Q01DX001 (ip), vehicle: saline): 141 % of control [survivor count not shown]

c1ccc(NC2CCN(C3CC3c3ccccc3)CC2)cc1 (centres undefined)
T/C (dose: 50.0 mg/kg/injection, schedule: Q01DX001 (ip), vehicle: Klucel (hydroxypropylcellulose) (HPC)): 94 % of control [survivor count not shown] | T/C (dose: 100.0 mg/kg/injection, schedule: Q01DX001 (ip), vehicle: Klucel (hydroxypropylcellulose) (HPC)): 97 % of control [survivor count not shown] | T/C (dose: 200.0 mg/kg/injection, schedule: Q01DX001 (ip), vehicle: Klucel (hydroxypropylcellulose) (HPC)): 94 % of control [survivor count not shown]

CC/C(C)=N/N(CCCl)CCCl
T/C (dose: 100.0 mg/kg/injection, schedule: Q01DX009 (ip), vehicle: saline): 103 % of control [survivor count not shown]

O=S=NN(CCCl)CCCl
T/C (dose: 2.1 mg/kg/injection, schedule: Q01DX015 (ip), vehicle: carboxymethylcellulose (CMC)): 98 % of control [survivor count not shown] | T/C (dose: 3.6 mg/kg/injection, schedule: Q01DX015 (ip), vehicle: carboxymethylcellulose (CMC)): 102 % of control [survivor count not shown] | T/C (dose: 5.0 mg/kg/injection, schedule: Q01DX001 (ip), vehicle: carboxymethylcellulose (CMC)): 112 % of control [survivor count not shown] | T/C (dose: 6.0 mg/kg/injection, schedule: Q01DX015 (ip), vehicle: carboxymethylcellulose (CMC)): 114 % of control [survivor count not shown] | T/C (dose: 9.0 mg/kg/injection, schedule: Q01DX001 (ip), vehicle: carboxymethylcellulose (CMC)): 113 % of control [survivor count not shown] | T/C (dose: 10.0 mg/kg/injection, schedule: Q01DX001 (ip), vehicle: carboxymethylcellulose (CMC)): 140 % of control [survivor count not shown] | T/C (dose: 10.0 mg/kg/injection, schedule: Q01DX015 (ip), vehicle: carboxymethylcellulose (CMC)): 117 % of control [survivor count not shown] | T/C (dose: 13.0 mg/kg/injection, schedule: Q01DX001 (ip), vehicle: carboxymethylcellulose (CMC)): 118 % of control [survivor count not shown] | T/C (dose: 20.0 mg/kg/injection, schedule: Q01DX001 (ip), vehicle: carboxymethylcellulose (CMC)): 135 [survivor count not shown] and 146 % of control [survivor count not shown] | T/C (dose: 30.0 mg/kg/injection, schedule: Q01DX001 (ip), vehicle: carboxymethylcellulose (CMC)): 143 % of control [survivor count not shown]
